{"source": "patent US8617528B2", "about": "“Compositions and methods for stabilizing ingredients using 2,4-pentanedione compounds” (Sytheon Ltd., priority 2010, dated 2013)", "origin": "cited, not measured here", "settings": "UV irradiation; cited from earlier work", "note": "Some results were stated once for a whole list of compounds, not compound by compound. At least one compound was matched to its structure with a doubt left.", "data": [{"molecule": "CCCCC(CC)COC(=O)c1ccc2cc(C(=O)OCC(CC)CCCC)ccc2c1", "note": "(stereo not shown) [Corapan® TQ, Diethyhexyl 2,6 naphthalate]", "values": [{"measurement": "UV dose above which effectiveness is lost / drops significantly", "result": "> 40", "unit": "Joules/cm^2"}]}]}
